From PMC9643514
Results are given in words; binding and its absence hold for the method and conditions named. Binding seen in cells or lysates may run through a third protein. Binding calls can cover weak binding; strength is not graded here. Where a sequence is shown, tags or fusion partners need not be part of it.

How the values were obtained:
[1] = molecular target: Flag-tagged BRCA1 deletion mutant ΔRING (UniProt P38398); test: co-IP; Flag-tagged BRCA1 (wild type, ΔRING, ΔBRCT) co-transfected with HA-tagged IARS1 in HEK293T, anti-Flag immunoprecipitation, immunoblot with anti-HA
[2] = molecular target: Flag-tagged BRCA1 deletion mutant ΔBRCT (UniProt P38398); test: as above

B1: HA-tagged IARS1 (enzyme, UniProt P41252 1-1262)
chain: MLQQVPENINFPAEEEKILEFWTEFNCFQECLKQSKHKPKFTFYDGPPFATGLPHYGHILAGTIKDIVTRYAHQSGFHVDRRFGWDCHGLPVEYEIDKTLGIRGPEDVAKMGITEYNNQCRAIVMRYSAEWKSTVSRLGRWIDFDNDYKTLYPQFMESVWWVFKQLYDKGLVYRGVKVMPFSTACNTPLSNFESHQNYKDVQDPSVFVTFPLEEDETVSLVAWTTTPWTLPSNLAVCVNPEMQYVKIKDVARGRLLILMEARLSALYKLESDYEILERFPGAYLKGKKYRPLFDYFLKCKENGAFTVLVDNYVKEEEGTGVVHQAPYFGAEDYRVCMDFNIIRKDSLPVCPVDASGCFTTEVTDFAGQYVKDADKSIIRTLKEQGRLLVATTFTHSYPFCWRSDTPLIYKAVPSWFVRVENMVDQLLRNNDLCYWVPELVREKRFGNWLKDARDWTISRNRYWGTPIPLWVSDDFEEVVCIGSVAELEELSGAKISDLHRESVDHLTIPSRCGKGSLHRISEVFDCWFESGSMPYAQVHYPFENKREFEDAFPADFIAEGIDQTRGWFYTLLVLATALFGQPPFKNVIVNGLVLASDGQKMSKRKKNYPDPVSIIQKYGADALRLYLINSPVVRAENLRFKEEGVRDVLKDVLLPWYNAYRFLIQNVLRLQKEEEIEFLYNENTVRESPNITDRWILSFMQSLIGFFETEMAAYRLYTVVPRLVKFVDILTNWYVRMNRRRLKGENGMEDCVMALETLFSVLLSLCRLMAPYTPFLTELMYQNLKVLIDPVSVQDKDTLSIHYLMLPRVREELIDKKTESAVSQMQSVIELGRVIRDRKTIPIKYPLKEIVVIHQDPEALKDIKSLEKYIIEELNVRKVTLSTDKNKYGIRLRAEPDHMVLGKRLKGAFKAVMTSIKQLSSEELEQFQKTGTIVVEGHELHDEDIRLMYTFDQATGGTAQFEAHSDAQALVLLDVTPDQSMVDEGMAREVINRIQKLRKKCNLVPTDEITVYYKAKSEGTYLNSVIESHTEFIFTTIKAPLKPYPVSPSDKVLIQEKTQLKGSELEITLTRGSSLPGPACAYVNLNICANGSEQGGVLLLENPKGDNRLDLLKLKSVVTSIFGVKNTELAVFHDETEIQNQTDLLSLSGKTLCVTAGSAPSLINSSSTLLCQYINLQLLNAKPQECLMGTVGTLLLENPLGQNGLTHQGLLYEAAKVFGLRSRKLKLFLNETQTQEITEDIPVKTLNMKTVYVSVLPTTADF
binding [1]: binds
binding [2]: binds
